The values below come from PubChem BioAssay AID330 (DTP/NCI, 2004).

This test relates to P388 leukemia ip, CD2F1 mice, survival T/C. Put plainly: NCI In Vivo Anticancer Drug Screen. Data for tumor model P388 Leukemia (intraperitoneal) in CD2F1 (CDF1) mice. The settings on record: T/C endpoint: median survival time, higher T/C = longer survival.
Setting [1] is: dose: 50.0 mg/kg/injection, schedule: Q01DX005 (ip), vehicle: Klucel (hydroxypropylcellulose) (HPC).
[2] abbreviates: dose: 100.0 mg/kg/injection, schedule: Q01DX005 (ip), vehicle: Klucel (hydroxypropylcellulose) (HPC).
Setting [3] is: dose: 200.0 mg/kg/injection, schedule: Q01DX005 (ip), vehicle: Klucel (hydroxypropylcellulose) (HPC).
Setting [4] is: dose: 100.0 mg/kg/injection, schedule: Q01DX009 (ip), vehicle: saline.
Where [5] appears, read: dose: 200.0 mg/kg/injection, schedule: Q01DX005 (ip), vehicle: saline with Tween-80.
[6] abbreviates: dose: 100.0 mg/kg/injection, schedule: Q01DX009 (ip), vehicle: Klucel (hydroxypropylcellulose) (HPC).
Where [7] appears, read: dose: 200.0 mg/kg/injection, schedule: Q01DX009 (ip), vehicle: Klucel (hydroxypropylcellulose) (HPC).
Setting [8] is: dose: 50.0 mg/kg/injection, schedule: Q01DX005 (ip), vehicle: saline with Tween-80.
Where [9] appears, read: dose: 100.0 mg/kg/injection, schedule: Q01DX005 (ip), vehicle: saline with Tween-80.
Where [10] appears, read: dose: 12.5 mg/kg/injection, schedule: Q01DX005 (ip), vehicle: Klucel (hydroxypropylcellulose) (HPC).
[11] abbreviates: dose: 25.0 mg/kg/injection, schedule: Q01DX005 (ip), vehicle: Klucel (hydroxypropylcellulose) (HPC).

The list does not hold the whole screen: it gathers tests that were run many times, whatever their T/C, doses with no T/C, and many T/C values between a quarter and a half above the control. Further doses and runs are listed elsewhere. T/C: endpoint of the treated group in % of that of the vehicle group. Some doses have a count of surviving animals in place of a T/C: the source files T/C as zero there, which appears to mark a toxic dose or a test without result, not a measured value. Some survivor counts are full or nearly so, which does not show that the dose was tolerated: the source hardly ever lists a survival T/C far under the control, and the zero likely stands for such cases as well. Survivors were counted at the toxicity check, usually on the fifth day, unless a day is given; later deaths do not show. Schedule codes are those of the source, read here as Q, the interval in days (D) or hours (H), X, the number of doses. Some entries were tested several times; the results are listed from low to high. For survival time, the PubChem record calls one and a half times the control and up active, and a quarter to a half above the control has no call in these data; cut-offs in other NCI protocols can differ. Some T/C values are followed by the survivors on the day toxicity was checked, most often the fifth; where none is given, no animal had died by that day.

Consider `CC(Oc1ccccc1)C(=O)N=c1scc(-c2ccc(Br)cc2)n1-c1cccc2ccccc12` (stereo unspecified), for which, for the setting “dose: 50.0 mg/kg/injection, schedule: Q01DX009 (ip), vehicle: gum acacia”, the survivor count was 3 of 3.

`O=c1cc(CCl)[nH]nc1CCl`: under “dose: 22.0 mg/kg/injection, schedule: Q04DX003 (ip), vehicle: saline with Tween-80”, the T/C is 144 % of control.

Regarding `CCC[CH2][Sn]1([CH2]CCC)[O]c2ccccc2[O]1`, the T/C (dose: 3.12 mg/kg/injection, schedule: Q01DX005 (ip), vehicle: saline with Tween-80) was 130 % of control. Moreover, the survivor count was 1 of 6 and 2 of 6 (dose: 6.25 mg/kg/injection, schedule: Q01DX005 (ip), vehicle: saline with Tween-80); 0 of 6 (dose: 12.5 mg/kg/injection, schedule: Q01DX005 (ip), vehicle: saline with Tween-80); 0 of 6 (dose: 25.0 mg/kg/injection, schedule: Q01DX005 (ip), vehicle: saline with Tween-80); 4 of 6 under setting [1]; 1 of 6 under setting [2]; 0 of 6 under setting [3].

Consider `CN(C)CC(Cl)CCl` (stereo unspecified), for which the T/C (dose: 50.0 mg/kg/injection, schedule: Q01DX009 (ip), vehicle: saline) was 127 % of control; the T/C under setting [4] is 145 % of control; the T/C (dose: 200.0 mg/kg/injection, schedule: Q04DX003 (ip), vehicle: saline) is 127 and 136 % of control.

With `O=c1[nH]cc([N+](=O)[O-])cc1Cl`, the survivor count under setting [5] was 2 of 6.

On to `NC(=O)c1cc([N+](=O)[O-])cnc1Sc1ncccn1`, for which the survivor count under setting [6] is recorded as 0 of 6 and the survivor count under setting [7] is on record as 0 of 6.

Take `COc1cc(NCCCCCNC(C)C)c2ncc(C)c(C)c2c1`: the survivor count (dose: 100.0 mg/kg/injection, schedule: Q01DX005 (ip), vehicle: saline) was 2 of 5 and the survivor count (dose: 200.0 mg/kg/injection, schedule: Q01DX005 (ip), vehicle: saline) is recorded as 0 of 5.

In the case of `CC1=CN2C(c3ccccc3)=NON(c3ccc(C)cn3)C2C=C1` (stereo unspecified), the survivor count is recorded as 5 of 5 under setting [8] and 6 of 6 under setting [9].

Take `COc1ccc2c(NCCCCCCCCCCNc3c4ccccc4nc4cc(OC)ccc34)c3ccccc3nc2c1`: the T/C (dose: 0.62 mg/kg/injection, schedule: Q01DX009 (ip), vehicle: other) is 144 % of control and the T/C (dose: 1.25 mg/kg/injection, schedule: Q01DX009 (ip), vehicle: other) is 145 % of control. Further, the survivor count runs as follows: (dose: 10.0 mg/kg/injection, schedule: Q01DX009 (ip), vehicle: other) 5 of 6; (dose: 20.0 mg/kg/injection, schedule: Q01DX009 (ip), vehicle: other) 0 of 6.

Regarding `C(=Nc1ccncc1)c1c[nH]c2ccccc12`, the survivor count was 0 of 6 (dose: 25.0 mg/kg/injection, schedule: Q01DX001 (ip), vehicle: Klucel (hydroxypropylcellulose) (HPC)); 0 of 6 and 2 of 6 (dose: 50.0 mg/kg/injection, schedule: Q01DX001 (ip), vehicle: Klucel (hydroxypropylcellulose) (HPC)); 0 of 6 (dose: 100.0 mg/kg/injection, schedule: Q01DX001 (ip), vehicle: Klucel (hydroxypropylcellulose) (HPC)); 0 of 6 (dose: 200.0 mg/kg/injection, schedule: Q01DX001 (ip), vehicle: Klucel (hydroxypropylcellulose) (HPC)).

Regarding `O=[N+]([O-])c1ccc(S(=O)(=O)C/C=C/CCl)c([N+](=O)[O-])c1`, the survivor count (dose: 50.0 mg/kg/injection, schedule: Q01DX009 (ip), vehicle: saline with Tween-80) is 3 of 6.

As for `C[n+]1ccc(CCNC2CCC(N=NC3CCC([N+](=O)[O-])CC3)CC2)cc1` (stereo unspecified), under setting [4], the survivor count is reported as 3 of 6.

As to `O=C1CCCN1CC#CCN1CCCC1`, the survivor count is given as 0 of 6 (dose: 6.25 mg/kg/injection, schedule: Q01DX005 (ip), vehicle: Klucel (hydroxypropylcellulose) (HPC)); 0 of 6 under setting [10]; 0 of 6 under setting [11]; 0 of 6 under setting [8]; 0 of 6 under setting [9]; 0 of 6 under setting [5].

For the compound `O=c1[nH]cccc1O`, the T/C under setting [6] is 125 and 128 % of control; the T/C (dose: 128.0 mg/kg/injection, schedule: Q01DX009 (ip), vehicle: saline with Tween-80) is 125 % of control; the T/C under setting [7] is 127 and 128 % of control; the T/C (dose: 250.0 mg/kg/injection, schedule: Q01DX009 (ip), vehicle: saline with Tween-80) is 132 % of control; the T/C (dose: 300.0 mg/kg/injection, schedule: Q01DX009 (ip), vehicle: saline) was 128 and 130 % of control; the T/C (dose: 400.0 mg/kg/injection, schedule: Q01DX009 (ip), vehicle: Klucel (hydroxypropylcellulose) (HPC)) was 133 % of control [5 of 6 alive]. For the setting “dose: 400.0 mg/kg/injection, schedule: Q01DX009 (ip), vehicle: saline”, the T/C is 126 [5 of 6 alive] and 138 % of control [5 of 6 alive]. Also, the survivor count (dose: 600.0 mg/kg/injection, schedule: Q01DX009 (ip), vehicle: Klucel (hydroxypropylcellulose) (HPC)) was 3 of 6 and 6 of 6.

For `[Cl][Sn]([Cl])([c]1ccccc1)[c]1ccccc1.c1ccncc1.c1ccncc1`, the T/C runs as follows: (dose: 1.56 mg/kg/injection, schedule: Q01DX009 (ip), vehicle: saline with Tween-80) 126 % of control; (dose: 3.12 mg/kg/injection, schedule: Q01DX009 (ip), vehicle: saline with Tween-80) 132 % of control; (dose: 6.25 mg/kg/injection, schedule: Q01DX009 (ip), vehicle: saline with Tween-80) 141 % of control. The survivor count is reported as 1 of 6 (dose: 12.5 mg/kg/injection, schedule: Q01DX009 (ip), vehicle: saline); 1 of 6 (dose: 25.0 mg/kg/injection, schedule: Q01DX009 (ip), vehicle: Klucel (hydroxypropylcellulose) (HPC)); 0 of 6 (dose: 25.0 mg/kg/injection, schedule: Q01DX009 (ip), vehicle: saline); 0 of 6 (dose: 50.0 mg/kg/injection, schedule: Q01DX009 (ip), vehicle: Klucel (hydroxypropylcellulose) (HPC)).

As for `COc1cccc2c1C(=O)c1c(O)c3c(c(O)c1C2=O)C[C@@](O)(C(=O)CO)C[C@@H]3OC1CC(N)CC(C)O1` (stereo partly specified), the T/C (dose: 0.1 mg/kg/injection, schedule: Q01DX009 (ip), vehicle: water) is 147 % of control; the T/C (dose: 0.78 mg/kg/injection, schedule: Q04DX003 (ip), vehicle: water) was 126 % of control; the T/C (dose: 1.56 mg/kg/injection, schedule: Q04DX003 (ip), vehicle: water) is 148 % of control; the T/C (dose: 1.8 mg/kg/injection, schedule: Q04DX003 (ip), vehicle: saline) was 145 % of control; the T/C (dose: 6.25 mg/kg/injection, schedule: Q04DX003 (ip), vehicle: water) was 129 % of control. The survivor count runs as follows: (dose: 2.5 mg/kg/injection, schedule: Q01DX009 (ip), vehicle: saline) 8 of 8; (dose: 3.13 mg/kg/injection, schedule: Q01DX009 (ip), vehicle: water) 6 of 6; (dose: 6.25 mg/kg/injection, schedule: Q01DX009 (ip), vehicle: water) 4 of 6; (dose: 12.5 mg/kg/injection, schedule: Q01DX009 (ip), vehicle: water) 5 of 6; (dose: 25.0 mg/kg/injection, schedule: Q01DX009 (ip), vehicle: water) 0 of 6.

On to `CN1CCN=C1c1ccc(NC(=O)c2ccc(C(=O)Nc3ccc(C4=NCCN4C)cc3)c(Cl)c2)cc1`, for which, under setting [10], the T/C is 128 % of control [4 of 6 alive]. Further, the survivor count by setting is: under setting [10], 3 of 6; under setting [11], 0 of 6; under setting [1], 0 of 6; under setting [2], 0 of 6; under setting [3], 0 of 6.
